According to patent publication US10730857B2, “Benzocyanine compounds” (Pierce Biotechnology, Inc., priority 2011, dated 2020):

Experiments:
[1] = test system: goat anti-mouse (GAM) antibodies; test: Labeling efficiency (degree of labeling) of goat anti-mouse antibody
[2] = test system: goat anti-rabbit (GAR) antibodies; test: Labeling efficiency (degree of labeling) of goat anti-rabbit antibody
[3] = Absorbance/emission spectral properties and fluorescence intensity of the dyes; assay type: physicochemical; settings: on average
Experimental: Emission/excitation profiles for inventive and commercial compounds was determined by reconstituting the compounds in DMF at 10 mg/ml and then diluting in PBS buffer pH 7.2 to 10 μg/ml.

[4] = GAM-2X molar excess, mole dye to mole protein
[5] = GAM, another set of experiments
[6] = GAR, * Company B conjugates precipitated above 10×

Compound | degree of labeling [1, 4] | Mole Dye/Mole Protein Ratio @ 2.5 X [1, 5] | Mole Dye/Mole Protein Ratio @ 5 X [1, 5] | Mole Dye/Mole Protein Ratio @ 7.5 X [1, 5] | Mole Dye/Mole Protein Ratio @ 10 X [1, 5] | Mole Dye/Mole Protein Ratio @ 15 X [1, 5] | Mole Dye/Mole Protein Ratio @ 5 X ([2]; GAR) | Mole Dye/Mole Protein Ratio @ 15 X [2, 6] | Mole Dye/Mole Protein Ratio @ 25 X [2, 6] | intensity lower compared to Company A Compound [3] | degree of labeling ([1]; GAM-4X molar excess, two values where printed) | degree of labeling ([2]; GAR-4X molar excess, two values where printed)
COCC[N+]1=C(/C=C/C=C/C=C2/N(CCCCCC(=O)O)c3ccc4c(S(=O)(=O)[O-])cc(S(=O)(=O)[O-])cc4c3C2(C)C)C(C)(CCCS(=O)(=O)[O-])c2c1ccc1c(S(=O)(=O)[O-])cc(S(=O)(=O)[O-])cc21.[Na+].[Na+].[Na+].[Na+] (stereo not shown) [679 Compound 1, 6-((E)-2-((2E,4E)-5-(3-(2-methoxyethyl)-1-methyl-6,8-disulfonato-1-(3-sulfonatopropyl)-1H-benzo[e]indol-3-ium-2-yl)penta-2,4-dien-1-ylidene)-1,1-dimethyl-6,8-disulfonato-1H-benzo[e]indol-3(2H)-yl)hexanoate] | 2.0 | 1.8 | 4.1 | 6.6 | 8.5 | 12.9 | 4.8 | 10.6 | 14.4 |  |  | 
COCC[N+]1=C(/C=C/C=C/C=C2/N(CCCCCC(=O)ON3C(=O)CCC3=O)c3ccc4c(S(=O)(=O)[O-])cc(S(=O)(=O)O)cc4c3C2(C)C)C(C)(CCCS(=O)(=O)O)c2c1ccc1c(S(=O)(=O)O)cc(S(=O)(=O)O)cc21 (stereo not shown) [679 Compound 1/1-NHS] |  |  |  |  |  |  |  |  |  | 20% |  | 
COCCOCCOCCOCC[N+]1=C(/C=C/C=C/C=C2/N(CCOCCOCCOCCOCCC(=O)ON3C(=O)CCC3=O)c3ccc4c(S(=O)(=O)[O-])cc(S(=O)(=O)O)cc4c3C2(C)CCOCCOCCOCCOC)C(C)(CCOCCOCCOCCOC)c2c1ccc1c(S(=O)(=O)O)cc(S(=O)(=O)O)cc21 (stereo not shown) [Compound V08-15173] |  | 2.5 | 4.9 | 7.1 | 8.9 |  | 4.6 |  |  | 20% |  | 
Cy5.5 [reference compound] | 1.6 |  |  |  |  |  |  |  |  |  | 2.6 | 2.2
